From PubChem BioAssay AID493014 (National Center for Advancing Translational Sciences (NCATS), 2011)
Some of the results follow. The main result of the screen is listed elsewhere. These columns were measured beside it and carry no call. The list favours compounds with an active or inconclusive main result. Words in brackets tell the shape of the fitted curve; partial curves, single points and poor fits give uncertain potencies.

Experiment: qHTS Assay to Find Inhibitors of Chronic Active B-Cell Receptor Signaling
Details: ABC-DLBCL IkBa-CBG/CBR reporter, luminescence ratio (green luciferase fused to IkBa over red control in TMD8 lymphoma cells), 4 h
How it was run: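 TMD8 ABC-DLBCL cells carrying doxycycline-inducible green luciferase fused to IkappaBalpha plus unfused red luciferase were exposed to compounds (up to 46 uM) for 4 hrs at 37C. Activity came from the overlap-corrected green/red luminescence ratio.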

[1] = measured here: CBR red luminescence, cell number
[2] = measured here: IkBa-CBG green luminescence

| Structure (SMILES) | AC50 [1] | AC50 [2] |
| --- | --- | --- |
| Cc1snc(SCc2ccc(Cl)cc2)c1C#N | 15.8 µM [rising, partial curve, poor fit] |  |
| Cn1c(=O)n(C)c2cc(NS(=O)(=O)c3ccc(Br)s3)ccc21 | 11.2 µM [rising, partial curve, poor fit] | 11.2 µM [falling, partial curve, poor fit] |
| C[C@@H](CN1C2=NC[C@H](Cc3ccccc3)N2C[C@H]1Cc1ccc(O)cc1)NC(=O)CCC1CCCCC1 | 5.62 µM [falling, partial curve] | 28.2 µM [rising, partial curve, poor fit] |
| Nn1c(SCC(=O)Nc2ccc(F)c(F)c2)nnc1C1CCCCC1 | 35.5 µM [falling, single point] |  |
| COc1ccc(-c2c(C)c3ccc(O)cc3oc2=O)cc1 | 1.41 µM [rising, partial curve, poor fit] | 7.94 µM [falling, partial curve] |
| COc1ccccc1CNCC(O)(c1ccc(Cl)cc1)c1ccc(Cl)cc1 | 17.8 µM [falling, single point] | 20 µM [rising, partial curve, poor fit] |
| Cn1cc(S(=O)(=O)N2CCOCC2)cc1C(=O)Nc1cccc(Cl)c1 | 11.2 µM [falling, single point] |  |
| O=C(c1ccccc1)c1ccc2nc(N3CCCCC3)c3nncn3c2c1 | 2.91 µM [rising, partial curve, poor fit] |  |
| COc1ccc(CSc2cccc3cccnc23)cc1[N+](=O)[O-] | 29.1 µM [rising, single point] |  |
| O=C(Nc1ccccc1F)Nc1cccc2ccc(O)cc12 | 14.1 µM [falling, partial curve] |  |
| COc1ccccc1NC(=O)CSc1nc2c(sc3ccccc32)c(=O)n1CCN(C)C | 12.6 µM [falling, partial curve, poor fit] |  |
| O=C1NC2(CCCCCC2)Cc2ccccc21 | 29.1 µM [rising, single point] |  |
| CCOC(=O)[C@H]1[C@H]2COc3cc(OC)ccc3[C@@H]2N2C(=O)CN(CCc3c[nH]c4ccccc34)C(=O)[C@@]12C | 29.1 µM [falling, single point] |  |
| COc1cccc(/C=C(/C#N)c2ccc(F)cc2)c1OCc1cccc(C(=O)O)c1 | 6.51 µM [rising, single point] |  |
| CN(C(=O)CSc1nncn1C)C1CCCN(Cc2ccccc2F)C1 (configuration not stated) | 12.6 µM [falling, partial curve, poor fit] |  |
| CCCNC(=O)c1csc(Nc2cccc3ccccc23)n1 | 11.2 µM [falling, partial curve] |  |
| CNC(=O)COc1ccccc1C(=O)Nc1ccc2c(c1)oc1ccccc12 | 11.6 µM [falling, partial curve] |  |
| Cc1ccc(NC(=O)c2cc(N(C)C)ccc2[P+](=O)O)cc1 | 1.58 µM [rising, full curve, poor fit] |  |
| C=C1C(=O)O[C@@H]2C[C@@H](C)[C@@H]3C=CC(=O)[C@@]3(C)[C@@H](OC(C)=O)[C@H]12 | 1.41 µM [falling, full curve] | 6.31 µM [rising, full curve, poor fit] |
| COc1ccc(CC(=O)OCc2cc(=O)n3cc(Br)ccc3n2)cc1OC | 0.355 µM [rising, full curve, poor fit] |  |

| Structure (SMILES) | AC50 [1] | AC50 [2] |
| --- | --- | --- |
| Cc1ccc2nc(-c3ccccc3Cl)cc(C(=O)Nc3cc(C)on3)c2c1 | 10 µM [falling, partial curve] |  |
| O=C(CN1C(=O)c2ccccc2S1(=O)=O)NCCc1ccccc1 | 0.0891 µM [falling, full curve, poor fit] |  |
| O=C(C(Sc1ccccc1)c1ccccc1)N1CCOCC1 (configuration not stated) | 6.51 µM [falling, partial curve, poor fit] |  |
| CC1CCC(C(C)C)C(OC(=O)COC(=O)c2ccc(N)cc2)C1 (configuration not stated) | 1.3 µM [rising, full curve, poor fit] |  |
| CCn1c(SCC#N)nc2ccccc2c1=O | 35.5 µM [falling, single point] |  |
| CCOC(=O)C1=C(C)N=C2SC(C(=O)OC)=CC(=O)N2C1c1ccc(F)cc1 (configuration not stated) | 6.31 µM [falling, partial curve, poor fit] |  |
| O=C(O)c1ccccc1/C=N/NC(=S)NC1CCCCC1 | 1.12 µM [rising, partial curve, poor fit] |  |
| COC(=O)c1ccc(C)c(NC(=O)CN2C(=O)c3ccccc3S2(=O)=O)c1 | 18.4 µM [rising, single point] |  |
| CC(CSc1nc2ccccc2s1)Cn1c(N2CCCC2)nc2c1c(=O)[nH]c(=O)n2C (configuration not stated) | 6.51 µM [rising, partial curve, poor fit] |  |
| CCN(c1ccccc1)S(=O)(=O)c1ccc(C(=O)NCC(=O)Nc2ccc(F)c(F)c2F)cc1 | 7.31 µM [falling, single point] |  |
| O=C1OCCN1C(=O)[C@H]1[C@H](c2ccc(Cl)cc2)C(c2ccc(F)cc2)=NN1c1ccccc1 | 20.6 µM [rising, partial curve, poor fit] |  |
| O=C(Nc1cccc([N+](=O)[O-])c1)Nc1cccc([N+](=O)[O-])c1 | 1.41 µM [rising, full curve, poor fit] |  |
| CC(C)n1cnc2c(NCc3ccccc3)cc(OCC3CCN(C)CC3)cc21 | 29.1 µM [falling, single point] |  |
| Oc1ccc2ccccc2c1/C=N/c1nccs1 | 25.1 µM [falling, single point] |  |
| CCOC(=O)Cc1csc(NC(=S)NC(=O)c2cc(OC)c(OC)c(OC)c2)n1 | 22.4 µM [falling, single point] |  |
| O=C(c1ccc(S(=O)(=O)Cc2ccccc2F)c([N+](=O)[O-])c1)N1CCCCCC1 | 14.1 µM [falling, partial curve, poor fit] | 2 µM [rising, partial curve, poor fit] |
| COc1ccc(OC)c(Nc2c3ccccc3nc3ccccc23)c1 | 2.82 µM [falling, partial curve, poor fit] |  |
| Cc1cc(C(F)F)n2ncc(C(=O)NCCc3ccccc3Cl)c2n1 | 5.8 µM [rising, partial curve] |  |
| COc1ccc(OC)c(-n2cc3c(=O)n(C)c(=O)n(C)c3c2)c1 | 20 µM [falling, single point] |  |
| COc1cc(C(=O)Nc2nc(OC)c(-c3ccccc3)c(OC)n2)cc(OC)c1OC | 12.6 µM [rising, single point] |  |

Some values from above:
Entry for `COC(=O)c1ccc(C)c(NC(=O)CN2C(=O)c3ccccc3S2(=O)=O)c1` under AC50 [1]: 18.4 µM [rising, single point]
Entry for `CCOC(=O)Cc1csc(NC(=S)NC(=O)c2cc(OC)c(OC)c(OC)c2)n1` under AC50 [1]: 22.4 µM [falling, single point]
Entry for `CCN(c1ccccc1)S(=O)(=O)c1ccc(C(=O)NCC(=O)Nc2ccc(F)c(F)c2F)cc1` under AC50 [1]: 7.31 µM [falling, single point]
Entry for `O=C(CN1C(=O)c2ccccc2S1(=O)=O)NCCc1ccccc1` under AC50 [1]: 0.0891 µM [falling, full curve, poor fit]

(cont.)

| Structure (SMILES) | AC50 [1] | AC50 [2] |
| --- | --- | --- |
| O=C(Nc1ccc(F)cc1F)c1ccc(-n2cccn2)nc1 | 15.8 µM [falling, single point] |  |
| CCOc1ccc(NS(=O)(=O)c2ccc(OC)c(C)c2)cc1 | 20.6 µM [falling, single point] |  |
| CCN(CC)c1ccc(/C=N/NC(=O)c2ccc3nc[nH]c3c2)cc1 | 15.8 µM [falling, partial curve] |  |
| COc1ccccc1/C=C1\SC(=S)N(CCC(=O)N2CCN(C)CC2)C1=O | 3.55 µM [falling, full curve] |  |
| CC1(C)Cc2c(cnn2-c2ccccc2)-c2c1c1ccccc1n2CC(O)CCl (configuration not stated) | 6.51 µM [falling, full curve] | 20.6 µM [rising, single point] |
| COc1ccccc1N1CCN(c2nc(N)c(C#N)c(CC#N)c2C#N)CC1 | 3.16 µM [rising, partial curve, poor fit] |  |
| O=C(Nc1ccc2c(c1)OCCO2)c1ccc(Cl)c([N+](=O)[O-])c1 | 16.4 µM [falling, single point] |  |
| Cc1ccc(NC(=O)CN2C(=O)NC3(CCCCCCC3)C2=O)cc1C | 14.6 µM [falling, partial curve] |  |
| Cc1ccc(NS(=O)(=O)c2ccc(C(=O)NCc3cccnc3)cc2)cc1 | 7.08 µM [falling, partial curve] |  |
| Cc1ccc(-n2cccc2/C=C2/C(=N)N3C(=NC2=O)SN=C3S(C)(=O)=O)cc1Cl |  | 18.4 µM [rising, partial curve, poor fit] |
| Cc1ccccc1-n1nc2c(c1NC(=O)C(C)(C)C)CS(=O)(=O)C2 | 0.112 µM [rising, full curve, poor fit] |  |
| O=C(O)CN1CCN(Cc2ccc(Cl)cc2)C1=O | 6.51 µM [rising, partial curve, poor fit] |  |
| COc1cccc(N/N=C/c2cccc(Br)c2O)c1 | 1.12 µM [falling, partial curve, poor fit] |  |
| COc1ccc(C(=O)/C=C/Sc2nc3ccccc3o2)cc1 | 12.6 µM [rising, single point] |  |
| CCC(CC)C(=O)N1CCN(Cc2nc3ccccc3c(=O)[nH]2)CC1 | 35.5 µM [falling, single point] |  |
| Cc1ccc(CCNC(=O)C2CCCN(S(=O)(=O)c3cccs3)C2)cc1 (configuration not stated) | 0.731 µM [falling, single point] |  |
| NS(=O)(=O)c1ccc(N=Cc2c(O)n(-c3nccs3)c(=O)c3ccccc23)cc1 | 2.82 µM [falling, partial curve, poor fit] |  |
| CCN1/C(=C\c2ccc3ccccc3[n+]2CC)Sc2cc(C)ccc21 | 35.5 µM [falling, single point] | 17.8 µM [rising, single point] |
| COc1ccc(C(=O)N/N=C\c2ccc(OC)c(COc3ccccc3Br)c2)c(OC)c1 | 2 µM [falling, full curve] |  |
